Source: the supplement of paper PMC10849652
This is one part of the list.

Protein sequences, listed by entry. Tags and fused reporters are not part of them. Lines headed by an entry give the natural chain unless they say otherwise; changes in a name come on top.
UniProt P31949: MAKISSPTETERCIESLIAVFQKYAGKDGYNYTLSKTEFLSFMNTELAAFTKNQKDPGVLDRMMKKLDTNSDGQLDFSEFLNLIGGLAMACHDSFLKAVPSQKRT
UniProt Q99643: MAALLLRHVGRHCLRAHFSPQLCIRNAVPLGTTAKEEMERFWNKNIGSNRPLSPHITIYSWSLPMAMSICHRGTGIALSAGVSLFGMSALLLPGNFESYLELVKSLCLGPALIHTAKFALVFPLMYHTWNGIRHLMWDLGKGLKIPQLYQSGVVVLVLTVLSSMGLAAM
UniProt Q96T51: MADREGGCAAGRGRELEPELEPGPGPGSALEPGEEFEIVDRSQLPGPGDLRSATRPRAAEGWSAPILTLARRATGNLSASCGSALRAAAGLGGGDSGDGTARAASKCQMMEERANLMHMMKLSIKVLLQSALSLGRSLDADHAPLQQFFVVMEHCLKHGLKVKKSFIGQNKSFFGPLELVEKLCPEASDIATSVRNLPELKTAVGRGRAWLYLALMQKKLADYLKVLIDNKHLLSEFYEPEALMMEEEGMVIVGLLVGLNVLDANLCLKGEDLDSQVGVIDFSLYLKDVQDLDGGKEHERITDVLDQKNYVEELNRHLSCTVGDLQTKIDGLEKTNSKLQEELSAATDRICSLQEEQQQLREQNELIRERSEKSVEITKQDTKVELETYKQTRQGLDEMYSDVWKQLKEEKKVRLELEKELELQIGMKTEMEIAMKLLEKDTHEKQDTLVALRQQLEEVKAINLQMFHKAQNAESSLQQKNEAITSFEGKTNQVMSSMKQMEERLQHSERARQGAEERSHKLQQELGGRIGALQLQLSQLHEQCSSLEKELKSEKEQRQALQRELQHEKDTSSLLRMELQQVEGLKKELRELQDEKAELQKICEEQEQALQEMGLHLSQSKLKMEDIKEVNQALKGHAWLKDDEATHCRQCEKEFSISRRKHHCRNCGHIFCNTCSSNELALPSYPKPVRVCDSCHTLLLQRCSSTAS
UniProt Q5PRF9: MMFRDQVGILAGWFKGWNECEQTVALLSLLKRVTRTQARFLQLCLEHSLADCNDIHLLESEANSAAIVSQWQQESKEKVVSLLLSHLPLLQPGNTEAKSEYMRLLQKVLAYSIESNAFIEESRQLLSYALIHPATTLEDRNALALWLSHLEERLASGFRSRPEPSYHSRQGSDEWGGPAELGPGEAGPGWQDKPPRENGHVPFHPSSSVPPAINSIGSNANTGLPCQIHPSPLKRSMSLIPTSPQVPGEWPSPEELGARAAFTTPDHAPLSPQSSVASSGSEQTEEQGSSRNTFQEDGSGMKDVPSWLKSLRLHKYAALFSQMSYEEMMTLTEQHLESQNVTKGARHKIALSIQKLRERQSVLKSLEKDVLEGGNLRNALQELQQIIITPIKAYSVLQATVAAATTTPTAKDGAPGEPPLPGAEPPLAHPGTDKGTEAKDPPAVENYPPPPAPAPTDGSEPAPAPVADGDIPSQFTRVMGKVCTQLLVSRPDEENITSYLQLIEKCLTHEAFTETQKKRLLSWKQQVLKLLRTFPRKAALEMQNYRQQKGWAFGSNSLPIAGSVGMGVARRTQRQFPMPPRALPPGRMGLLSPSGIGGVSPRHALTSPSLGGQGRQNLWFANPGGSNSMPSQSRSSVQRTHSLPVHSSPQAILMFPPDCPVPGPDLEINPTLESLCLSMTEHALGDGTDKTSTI
UniProt Q96BY9: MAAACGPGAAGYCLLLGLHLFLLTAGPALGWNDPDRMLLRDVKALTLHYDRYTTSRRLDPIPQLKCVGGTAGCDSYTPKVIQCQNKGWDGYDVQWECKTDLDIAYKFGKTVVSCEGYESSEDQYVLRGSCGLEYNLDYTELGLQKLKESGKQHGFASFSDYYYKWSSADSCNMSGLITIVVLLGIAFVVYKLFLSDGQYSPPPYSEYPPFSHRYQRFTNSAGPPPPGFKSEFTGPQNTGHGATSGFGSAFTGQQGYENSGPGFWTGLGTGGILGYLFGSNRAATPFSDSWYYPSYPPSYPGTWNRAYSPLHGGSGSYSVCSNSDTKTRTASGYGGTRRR
UniProt Q9HCY8: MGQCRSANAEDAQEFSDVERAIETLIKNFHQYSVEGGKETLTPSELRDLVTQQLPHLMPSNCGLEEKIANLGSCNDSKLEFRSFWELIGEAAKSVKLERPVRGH
UniProt P60903, whole entry, looked up: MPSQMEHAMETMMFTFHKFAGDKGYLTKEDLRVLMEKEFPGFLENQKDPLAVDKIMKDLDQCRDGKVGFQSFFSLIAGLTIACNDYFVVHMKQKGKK
UniProt Q8IZE3: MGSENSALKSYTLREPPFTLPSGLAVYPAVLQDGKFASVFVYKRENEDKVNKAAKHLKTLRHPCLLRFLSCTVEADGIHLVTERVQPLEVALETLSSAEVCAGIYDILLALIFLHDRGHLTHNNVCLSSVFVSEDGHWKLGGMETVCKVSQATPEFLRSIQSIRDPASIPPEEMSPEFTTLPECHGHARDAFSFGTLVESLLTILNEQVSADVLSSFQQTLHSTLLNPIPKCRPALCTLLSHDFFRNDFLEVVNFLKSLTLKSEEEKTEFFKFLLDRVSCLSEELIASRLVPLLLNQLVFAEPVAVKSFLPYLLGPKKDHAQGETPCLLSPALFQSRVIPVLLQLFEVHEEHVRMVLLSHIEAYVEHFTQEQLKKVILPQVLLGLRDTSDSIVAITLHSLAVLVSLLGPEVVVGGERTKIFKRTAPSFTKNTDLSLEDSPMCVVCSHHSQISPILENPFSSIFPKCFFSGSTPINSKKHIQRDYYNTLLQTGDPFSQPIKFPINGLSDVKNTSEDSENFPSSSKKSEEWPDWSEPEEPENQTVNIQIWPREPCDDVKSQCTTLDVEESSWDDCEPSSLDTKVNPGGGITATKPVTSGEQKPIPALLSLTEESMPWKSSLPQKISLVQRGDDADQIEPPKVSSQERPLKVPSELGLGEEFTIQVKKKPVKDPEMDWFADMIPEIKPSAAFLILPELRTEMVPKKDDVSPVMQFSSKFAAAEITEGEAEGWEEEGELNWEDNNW
UniProt Q96IW7: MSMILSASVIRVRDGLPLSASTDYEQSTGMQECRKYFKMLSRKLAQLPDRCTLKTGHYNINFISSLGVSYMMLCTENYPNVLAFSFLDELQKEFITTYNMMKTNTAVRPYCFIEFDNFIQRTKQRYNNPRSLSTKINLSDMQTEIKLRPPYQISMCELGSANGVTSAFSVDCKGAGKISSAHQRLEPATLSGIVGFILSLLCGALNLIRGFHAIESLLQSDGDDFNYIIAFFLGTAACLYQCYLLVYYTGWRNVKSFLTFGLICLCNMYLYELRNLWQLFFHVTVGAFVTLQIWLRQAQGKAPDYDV
UniProt O14828: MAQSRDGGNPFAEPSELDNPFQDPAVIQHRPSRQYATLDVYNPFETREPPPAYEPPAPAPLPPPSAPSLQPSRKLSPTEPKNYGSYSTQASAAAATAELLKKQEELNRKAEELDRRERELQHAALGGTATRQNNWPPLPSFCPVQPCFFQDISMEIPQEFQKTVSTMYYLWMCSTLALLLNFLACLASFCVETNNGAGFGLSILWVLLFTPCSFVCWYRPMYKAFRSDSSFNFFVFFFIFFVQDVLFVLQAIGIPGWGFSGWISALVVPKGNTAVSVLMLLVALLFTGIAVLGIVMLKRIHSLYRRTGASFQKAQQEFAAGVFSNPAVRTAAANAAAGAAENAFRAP
UniProt Q9BWG6: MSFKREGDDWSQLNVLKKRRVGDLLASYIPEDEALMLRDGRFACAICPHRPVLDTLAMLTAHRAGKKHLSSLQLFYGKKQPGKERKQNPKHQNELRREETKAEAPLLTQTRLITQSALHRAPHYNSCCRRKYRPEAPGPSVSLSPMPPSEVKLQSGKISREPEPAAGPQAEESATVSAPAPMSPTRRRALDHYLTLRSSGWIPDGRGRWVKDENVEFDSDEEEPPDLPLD
UniProt Q96NL6: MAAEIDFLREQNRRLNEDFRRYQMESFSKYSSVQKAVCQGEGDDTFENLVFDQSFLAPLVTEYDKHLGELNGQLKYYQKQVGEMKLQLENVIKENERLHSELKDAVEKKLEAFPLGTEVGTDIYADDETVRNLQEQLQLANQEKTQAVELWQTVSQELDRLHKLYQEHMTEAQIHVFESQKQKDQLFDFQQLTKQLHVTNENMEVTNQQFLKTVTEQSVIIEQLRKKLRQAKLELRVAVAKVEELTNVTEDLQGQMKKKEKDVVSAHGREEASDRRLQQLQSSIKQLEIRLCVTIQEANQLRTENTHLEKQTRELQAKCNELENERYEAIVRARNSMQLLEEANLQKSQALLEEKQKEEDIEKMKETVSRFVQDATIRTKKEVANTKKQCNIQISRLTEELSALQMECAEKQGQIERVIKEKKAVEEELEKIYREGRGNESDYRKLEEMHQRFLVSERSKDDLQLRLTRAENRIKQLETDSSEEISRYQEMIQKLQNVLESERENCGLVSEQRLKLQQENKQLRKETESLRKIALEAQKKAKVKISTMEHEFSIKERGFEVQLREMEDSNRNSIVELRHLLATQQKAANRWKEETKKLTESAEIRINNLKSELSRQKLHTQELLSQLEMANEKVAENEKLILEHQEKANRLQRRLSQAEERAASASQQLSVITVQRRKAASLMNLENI
UniProt O00560: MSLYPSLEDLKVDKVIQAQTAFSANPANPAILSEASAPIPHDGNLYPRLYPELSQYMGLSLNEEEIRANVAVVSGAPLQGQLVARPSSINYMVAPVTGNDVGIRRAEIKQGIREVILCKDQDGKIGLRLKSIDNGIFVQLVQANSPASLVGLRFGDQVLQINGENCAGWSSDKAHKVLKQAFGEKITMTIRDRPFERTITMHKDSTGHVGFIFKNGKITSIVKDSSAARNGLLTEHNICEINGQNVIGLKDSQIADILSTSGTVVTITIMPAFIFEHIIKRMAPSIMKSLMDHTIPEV
UniProt Q01196, whole entry, looked up: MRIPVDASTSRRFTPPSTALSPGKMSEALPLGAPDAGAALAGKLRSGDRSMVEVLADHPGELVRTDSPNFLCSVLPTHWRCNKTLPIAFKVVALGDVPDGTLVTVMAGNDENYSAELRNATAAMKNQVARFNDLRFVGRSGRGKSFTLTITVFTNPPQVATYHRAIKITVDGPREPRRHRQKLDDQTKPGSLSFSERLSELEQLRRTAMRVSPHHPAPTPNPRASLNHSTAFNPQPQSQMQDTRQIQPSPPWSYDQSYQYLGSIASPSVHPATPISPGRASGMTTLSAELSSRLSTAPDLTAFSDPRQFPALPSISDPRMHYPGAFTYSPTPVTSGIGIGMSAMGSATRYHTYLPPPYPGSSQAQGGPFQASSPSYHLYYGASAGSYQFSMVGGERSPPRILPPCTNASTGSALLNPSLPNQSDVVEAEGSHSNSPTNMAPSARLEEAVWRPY
UniProt O95487: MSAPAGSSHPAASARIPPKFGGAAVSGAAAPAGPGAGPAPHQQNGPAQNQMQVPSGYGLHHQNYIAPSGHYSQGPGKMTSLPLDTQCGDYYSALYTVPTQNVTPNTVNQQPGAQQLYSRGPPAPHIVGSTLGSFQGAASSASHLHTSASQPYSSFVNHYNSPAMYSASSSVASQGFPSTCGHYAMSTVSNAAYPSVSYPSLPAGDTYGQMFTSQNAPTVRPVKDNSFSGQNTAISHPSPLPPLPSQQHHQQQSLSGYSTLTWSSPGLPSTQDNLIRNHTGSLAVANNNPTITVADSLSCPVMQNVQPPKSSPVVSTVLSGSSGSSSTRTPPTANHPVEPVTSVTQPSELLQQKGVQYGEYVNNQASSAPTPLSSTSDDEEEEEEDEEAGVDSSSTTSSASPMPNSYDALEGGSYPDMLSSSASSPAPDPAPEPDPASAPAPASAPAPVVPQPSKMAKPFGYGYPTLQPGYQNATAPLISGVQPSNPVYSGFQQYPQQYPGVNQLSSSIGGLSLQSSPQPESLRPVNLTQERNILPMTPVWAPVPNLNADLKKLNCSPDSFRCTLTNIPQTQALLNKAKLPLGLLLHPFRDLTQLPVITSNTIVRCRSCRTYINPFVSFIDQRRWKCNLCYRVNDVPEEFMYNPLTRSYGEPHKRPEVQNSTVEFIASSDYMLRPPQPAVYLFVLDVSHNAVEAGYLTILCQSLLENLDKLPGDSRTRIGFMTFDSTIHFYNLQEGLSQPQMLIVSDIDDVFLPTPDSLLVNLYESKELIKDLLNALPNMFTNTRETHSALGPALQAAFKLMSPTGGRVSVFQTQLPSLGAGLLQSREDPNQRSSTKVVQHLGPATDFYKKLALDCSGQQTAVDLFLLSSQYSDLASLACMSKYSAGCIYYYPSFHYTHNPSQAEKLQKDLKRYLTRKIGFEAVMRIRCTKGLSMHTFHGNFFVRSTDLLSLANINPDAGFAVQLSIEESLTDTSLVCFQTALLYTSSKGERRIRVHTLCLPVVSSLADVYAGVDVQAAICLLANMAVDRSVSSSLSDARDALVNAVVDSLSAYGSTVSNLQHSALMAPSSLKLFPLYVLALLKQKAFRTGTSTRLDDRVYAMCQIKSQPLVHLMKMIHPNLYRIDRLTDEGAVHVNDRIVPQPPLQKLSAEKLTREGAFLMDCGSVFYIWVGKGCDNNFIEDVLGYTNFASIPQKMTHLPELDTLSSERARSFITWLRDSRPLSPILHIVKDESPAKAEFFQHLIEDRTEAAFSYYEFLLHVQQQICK

Tests used:
Assay in all cases: log2 fold change, soluble protein after heating vs DMSO (PISA); higher = thermal stabilisation; K562 cells, 10 uM, 30 min; active = over 0.2 and 3.5 SD of the protein, either way, in both replicates (recomputed)
bafetinib = compound: Cc1ccc(NC(=O)c2ccc(CN3CC[C@H](N(C)C)C3)c(C(F)(F)F)c2)cc1Nc1nccc(-c2cncnc2)n1 [bafetinib]
Method in brief: (§1)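 K562 cells at 2×10^6 cells/mL were treated for 30 min with 10 μM compound, and aliquots were heated for 3 min over 48°C-58°C before pooling. Extraction used PBS with 0.5% NP-40 at 4°C, and soluble protein was the supernatant after 21,000xg for 90 min, measured by TMTpro 16plex LC-MS/MS with channel sums equalised. Thermal stability values, relative to control samples and from duplicates, are log2 fold changes.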

[1] = compound: Cc1cccc(CC(=O)N2CCc3c2ccc(-c2cn(C)c4ncnc(N)c24)c3F)n1
Method in brief: as §1

nilotinib = compound: Cc1cn(-c2cc(NC(=O)c3ccc(C)c(Nc4nccc(-c5cccnc5)n4)c3)cc(C(F)(F)F)c2)cn1 [nilotinib]
Method in brief: as §1

[2] = compound: Cc1nc(Nc2n[nH]c3c2CN(C(=O)N[C@H](CN(C)C)c2ccccc2)C3(C)C)c2sccc2n1
Method in brief: as §1

dasatinib = compound: Cc1nc(Nc2ncc(C(=O)Nc3c(C)cccc3Cl)s2)cc(N2CCN(CCO)CC2)n1 [dasatinib]
Method in brief: as §1

[3] = compound: Cc1ncc(-c2ccnc(Nc3ccc(S(C)(=O)=O)cc3)n2)n1C(C)C
Method in brief: as §1

[4] = compound: Cn1cc(-c2ccc3c(c2)CCN3C(=O)Cc2cccc(C(F)(F)F)c2)c2c(N)ncnc21
Method in brief: as §1

[5] = compound: Cn1cc(-c2ccc3nnc(C(F)(F)c4ccc5ncccc5c4)n3n2)cn1
Method in brief: as §1

tipifarnib = compound: Cn1cncc1[C@@](N)(c1ccc(Cl)cc1)c1ccc2c(c1)c(-c1cccc(Cl)c1)cc(=O)n2C [tipifarnib]
Method in brief: as §1

mubritinib = compound: FC(F)(F)c1ccc(/C=C/c2nc(COc3ccc(CCCCn4ccnn4)cc3)co2)cc1 [mubritinib]
Method in brief: as §1

[6] = compound: NC(=O)Nc1cc(-c2cccc(F)c2)sc1C(=O)N[C@H]1CCCNC1
Method in brief: as §1

[7] = compound: NC(=O)c1cnc(N[C@@H]2CCCC[C@@H]2N)nc1Nc1cccc(-n2nccn2)c1
Method in brief: as §1

[8] = compound: NC1(c2ccc(-c3nc4ccn5c(=O)[nH]nc5c4cc3-c3ccccc3)cc2)CCC1
Method in brief: as §1

[9] = compound: NCC(=O)Nc1ccc(-n2nc(C(F)(F)F)cc2-c2ccc3c(ccc4ccccc43)c2)cc1
Method in brief: as §1

entinostat = compound: Nc1ccccc1NC(=O)c1ccc(CNC(=O)OCc2cccnc2)cc1 [entinostat]
Method in brief: as §1

vorinostat = compound: O=C(CCCCCCC(=O)Nc1ccccc1)NO [vorinostat]
Method in brief: as §1

citarinostat = compound: O=C(CCCCCCNC(=O)c1cnc(N(c2ccccc2)c2ccccc2Cl)nc1)NO [citarinostat]
Method in brief: as §1

silmitasertib = compound: O=C(O)c1ccc2c(c1)nc(Nc1cccc(Cl)c1)c1ccncc12 [silmitasertib]
Method in brief: as §1

[10] = compound: O=C1NC(=O)C(c2cnc3ccccn23)=C1c1cn2c3c(cc(F)cc13)CN(C(=O)N1CCCCC1)CC2
Method in brief: as §1

[11] = compound: c1cc(OCCN2CCCCC2)cc(-c2n[nH]c3ccc(-c4nnc[nH]4)cc23)c1
Method in brief: as §1

Measured: log2 fold change

S100A11 (UniProt P31949)
inactive: bafetinib -0.06 | [1] -0.038 | nilotinib 0.029 | [2] 0 | dasatinib 0.077 | [3] -0.013 | [4] 0.065 | [5] 0.22 | tipifarnib -0.082 | mubritinib 0.052 | [6] 0.006 | [7] -0.029 | [8] 0.033 | [9] -0.001 | entinostat 0.082 | vorinostat -0.183 | citarinostat 0.011 | silmitasertib -0.003 | [10] -0.102 | [11] -0.05

SDHC (UniProt Q99643)
inactive: bafetinib 0 | [1] -0.127 | nilotinib 0.007 | [2] 0.068 | dasatinib 0.028 | [3] -0.056 | [4] -0.011 | [5] -0.024 | tipifarnib 0.211 | mubritinib 0.02 | [6] -0.12 | [7] 0.097 | [8] -0.079 | [9] 0.041 | entinostat -0.178 | vorinostat -0.042 | citarinostat 0.033 | silmitasertib 0.032 | [10] 0 | [11] -0.062

SDHB, A0A087WXX8
inactive: bafetinib 0.016 | [1] -0.13 | nilotinib -0.107 | [2] 0.071 | dasatinib -0.035 | [3] -0.057 | [4] -0.104 | [5] 0.097 | tipifarnib 0.054 | mubritinib -0.045 | [7] -0.201 | [8] 0.136 | [9] -0.039 | vorinostat -0.01 | silmitasertib -0.204

RUFY1 (UniProt Q96T51)
inactive: bafetinib -0.052 | [1] 0.077 | nilotinib -0.066 | [2] -0.086 | dasatinib -0.11 | [3] 0.067 | [4] -0.061 | [5] 0.05 | tipifarnib -0.062 | mubritinib -0.001 | [6] 0.06 | [7] -0.057 | [8] -0.086 | [9] -0.101 | entinostat 0.05 | vorinostat 0.031 | citarinostat 0.032 | silmitasertib 0.11 | [10] 0.038 | [11] -0.037

SAMD4B (UniProt Q5PRF9)
inactive: bafetinib -0.436 | [1] 0.125 | nilotinib -0.167 | [2] -0.312 | dasatinib -0.296 | [3] 0.002 | [4] -0.072 | [5] -0.042 | tipifarnib 0.09 | [6] -0.459 | entinostat 0.133 | vorinostat -0.069 | [10] 0.067

SARAF (UniProt Q96BY9)
inactive: bafetinib -0.262 | [1] 0.031 | dasatinib -0.103 | [4] 0.13 | tipifarnib 0.09 | [6] -0.065 | [7] -0.098 | [9] -0.052 | entinostat 0.077 | vorinostat 0.027 | citarinostat 0.18 | [10] 0.058 | [11] 0.007

RTN4 isoform 2 (UniProt Q9NQC3)
inactive: bafetinib -0.135 | [1] 0.112 | dasatinib 0.16 | [4] -0.058 | [5] 0.058 | tipifarnib 0.025 | [6] -0.078 | [7] -0.021 | [9] -0.033 | entinostat -0.051 | vorinostat 0.016 | [10] 0.026

S100A14 (UniProt Q9HCY8)
inactive: bafetinib -0.116 | nilotinib -0.02 | [2] 0.113 | dasatinib -0.441 | [3] 0.318 | [5] 0.373 | mubritinib -0.098 | [7] 0.257 | [8] 0.025 | [9] 0.078 | citarinostat -0.138 | silmitasertib -0.111 | [11] 0.585

S100A10 (UniProt P60903)
active: [11] 0.792
inactive: bafetinib -0.026 | [1] -0.035 | nilotinib 0.072 | [2] -0.057 | [3] -0.016 | [4] 0.146 | tipifarnib 0.131 | [6] 0.3 | [7] 0.283 | entinostat 0.189 | vorinostat -0.023 | citarinostat 0.333

SCYL3 isoform 2 (UniProt Q8IZE3)
inactive: bafetinib -0.056 | [1] -0.017 | nilotinib -0.215 | [2] -0.167 | dasatinib -0.124 | [3] 0.111 | [4] -0.062 | [5] -0.05 | tipifarnib 0.044 | mubritinib 0.032 | [7] 0.001 | [8] -0.185 | [9] -0.055 | vorinostat 0.031 | citarinostat -0.047 | silmitasertib 0.021 | [10] -0.053 | [11] 0.173

SEC22A (UniProt Q96IW7)
inactive: bafetinib 0.132 | [1] -0.041 | dasatinib 0.153 | [4] -0.105 | [5] 0.03 | tipifarnib 0.034 | [7] -0.029 | vorinostat 0.16

SCAMP3 isoform 2 (UniProt O14828)
inactive: bafetinib 0.027 | nilotinib 0.048 | [2] 0.027 | [3] -0.01 | [5] 0.003 | tipifarnib -0.001 | mubritinib 0.015 | [8] -0.031 | [9] -0.114 | citarinostat 0.064 | silmitasertib -0.129 | [10] 0.01 | [11] 0.116

SCNM1 (UniProt Q9BWG6)
inactive: bafetinib -0.188 | [1] -0.122 | nilotinib 0.081 | [2] 0.003 | dasatinib 0.06 | [3] 0.023 | [5] 0.023 | tipifarnib 0.051 | mubritinib -0.05 | [6] 0.104 | [7] -0.258 | [8] 0.081 | entinostat -0.085 | vorinostat -0.027 | citarinostat 0.117 | silmitasertib 0.086 | [10] 0.115 | [11] -0.035

SCLT1 (UniProt Q96NL6)
inactive: bafetinib 0.087 | [1] -0.009 | nilotinib -0.099 | [2] -0.043 | dasatinib -0.052 | [3] 0.041 | [4] 0.191 | mubritinib 0.098 | [6] -0.007 | [8] -0.057 | [9] -0.077 | entinostat -0.023 | vorinostat 0.064 | silmitasertib -0.01

S100PBP (UniProt Q96BU1)
inactive: bafetinib -0.046 | [1] 0.132 | nilotinib 0.017 | [2] -0.104 | [3] 0.017 | [4] -0.015 | [5] -0.075 | tipifarnib 0.07 | mubritinib -0.037 | [6] 0.108 | [7] -0.009 | [8] 0.056 | [9] 0.109 | entinostat 0 | vorinostat 0.063 | citarinostat 0.011 | silmitasertib -0.004 | [10] 0.049 | [11] 0.021

SDCBP isoform 2 (UniProt O00560)
inactive: bafetinib -0.298 | [1] -0.066 | nilotinib 0.108 | [2] -0.219 | dasatinib -0.083 | [3] -0.205 | [5] -0.085 | tipifarnib 0.109 | mubritinib 0.033 | [6] -0.038 | [8] -0.286 | entinostat 0.004 | vorinostat -0.01 | citarinostat 0.024 | silmitasertib 0.124 | [10] -0.041 | [11] 0.097

Retrieved one by one from above (two):
SDHC (UniProt Q99643)
inactive: bafetinib 0 | [1] -0.127 | nilotinib 0.007 | [2] 0.068 | dasatinib 0.028 | [3] -0.056 | [4] -0.011 | [5] -0.024 | tipifarnib 0.211 | mubritinib 0.02 | [6] -0.12 | [7] 0.097 | [8] -0.079 | [9] 0.041 | entinostat -0.178 | vorinostat -0.042 | citarinostat 0.033 | silmitasertib 0.032 | [10] 0 | [11] -0.062

SCNM1 (UniProt Q9BWG6)
inactive: bafetinib -0.188 | [1] -0.122 | nilotinib 0.081 | [2] 0.003 | dasatinib 0.06 | [3] 0.023 | [5] 0.023 | tipifarnib 0.051 | mubritinib -0.05 | [6] 0.104 | [7] -0.258 | [8] 0.081 | entinostat -0.085 | vorinostat -0.027 | citarinostat 0.117 | silmitasertib 0.086 | [10] 0.115 | [11] -0.035

Next records

RUNX1 isoform 8 (UniProt Q01196)
inactive: bafetinib -0.149 | [1] -0.224 | nilotinib -0.07 | [2] -0.281 | dasatinib -0.082 | [3] -0.209 | [5] -0.104 | tipifarnib 0.001 | mubritinib 0.01 | [6] -0.027 | [7] 0.03 | [8] -0.092 | [9] 0.187 | entinostat -0.16 | vorinostat 0.321 | citarinostat -0.249 | silmitasertib 0.119 | [10] 0.082 | [11] 0.051

S100A6 (UniProt P06703)
inactive: bafetinib -0.17 | [1] -0.094 | nilotinib 0.011 | [2] 0.005 | dasatinib 0.055 | [3] -0.023 | [4] 0.039 | [5] 0.09 | tipifarnib -0.131 | mubritinib -0.026 | [6] 0.053 | [7] -0.006 | [8] -0.043 | entinostat 0.064 | vorinostat -0.042 | citarinostat 0.022 | silmitasertib 0 | [10] -0.185 | [11] -0.04

SEC24B isoform 3 (UniProt O95487)
inactive: bafetinib 0.026 | [1] -0.046 | dasatinib -0.186 | [4] -0.115 | [5] -0.004 | tipifarnib -0.014 | mubritinib -0.114 | [6] -0.057 | [7] 0.023 | [8] -0.045 | [9] -0.02 | entinostat 0.13 | vorinostat 0.038 | citarinostat 0.043 | silmitasertib 0.09 | [10] -0.023 | [11] -0.06
